The other results are listed elsewhere or left out.

These results are taken from paper PMC7819943, “Rice protein-binding microarrays: a tool to detect cis-acting elements near promoter regions in rice”.

The experiment has as its target T1, OsSMF1 (Oryza sativa, UniProt Q6ZLB0 1-436).
T1 sequence: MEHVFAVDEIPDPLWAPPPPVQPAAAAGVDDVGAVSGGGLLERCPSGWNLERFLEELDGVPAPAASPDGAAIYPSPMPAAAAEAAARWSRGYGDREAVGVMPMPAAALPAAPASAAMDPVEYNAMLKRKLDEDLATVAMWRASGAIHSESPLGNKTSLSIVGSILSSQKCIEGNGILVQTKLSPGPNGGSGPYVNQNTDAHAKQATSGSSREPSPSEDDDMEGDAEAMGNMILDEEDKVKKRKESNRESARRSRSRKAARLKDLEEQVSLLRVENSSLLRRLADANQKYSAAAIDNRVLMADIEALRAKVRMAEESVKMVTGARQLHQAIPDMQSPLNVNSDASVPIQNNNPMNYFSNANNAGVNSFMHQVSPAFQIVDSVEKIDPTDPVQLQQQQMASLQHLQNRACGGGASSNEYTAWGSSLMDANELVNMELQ
Nature of the experiment: protein-binding microarray (RPBM); PBS, 2% BSA, 51.3 ng/ul salmon testes DNA, 50 uM zinc acetate, 200 nM TF, 25 C, 1 h; high values mean tight binding. To be noted: protein: recombinant; tags: N-terminal polyhistidine and DsRed monomer fusion (pET32a); chain copies: 2; label: CyDye5-dUTP incorporated in the synthesized complementary strand; 3' TTTTT single-stranded linker to array surface; dsDNA, one strand shown. The method, boiled down: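 Transcription factors were each fused at the N-terminus to a polyhistidine tag plus DsRed and expressed in E. coli BL21-CodonPlus before Ni–NTA purification. Binding to a double-stranded custom Agilent array was carried out with 200 nM protein at 25 °C for 1 h in PBS, 2% BSA, salmon testes DNA and 50 µM zinc acetate. The binding signal is per-feature fluorescence intensity, in arbitrary units, on an Axon 4000B scanner.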
As to “ATTTAGAACGCAGGAATTTCCACGTTTGATCGTAGACCCACGGAGTCACCTAGTGCAG”, the binding signal is 3780 fluorescence intensity (a.u.).
On to “GCATCGCAGCCGCTATCCGCGTGGGCATTCCGCCGAGCACCGGAGTCACCTAGTGCAG”, for which the binding signal is 4280 fluorescence intensity (a.u.).
Under “AGCTACGCTACGGCCCCACCCAACTGCTCTTCCTACGCGCCGGAGTCACCTAGTGCAG” stands 3160 fluorescence intensity (a.u.).
The result for “TCCCTTTCGGCCTCGCCTTCCTTCCTTGCGACTCAGGTCACGGAGTCACCTAGTGCAG” reads 3530 fluorescence intensity (a.u.); that for “TTAATTTATGGCGCTGGCCGTCAGCCGGTTGTGGTATGTTCGGAGTCACCTAGTGCAG”, 3790 fluorescence intensity (a.u.); that for “ACTAAATGAGATCACTGATGACACAACACATATGACTCTTCGGAGTCACCTAGTGCAG”, 4310 fluorescence intensity (a.u.).
The result for “TCTATACTGTTCCACGTCAAATTACCATTCTACCCTCCATCGGAGTCACCTAGTGCAG” reads 9250 fluorescence intensity (a.u.).
On to “TTAATTAATTATGCTAAATGGATATAGTTTGATTCGATCACGGAGTCACCTAGTGCAG”, for which the binding signal is 3440 fluorescence intensity (a.u.).
As for “CGAGGCGAGCAAAGCGTGACGTGGCCACCTTCCCCGCCGCCGGAGTCACCTAGTGCAG”, the binding signal was 32600 fluorescence intensity (a.u.).
Turning to “TCACCTGTCCTCCTTGGTCCAACTATGTCGAGAATCGATGCGGAGTCACCTAGTGCAG”, the binding signal is 3220 fluorescence intensity (a.u.).
The result for “GTTCTGGAGTCCATCCTCTCGGTCTTTAGCTGGCGTTACCCGGAGTCACCTAGTGCAG” reads 20400 fluorescence intensity (a.u.).
Under “GATAACCACATCATCTAAGAACGGAATGCCTTGTGCAAATCGGAGTCACCTAGTGCAG” stands 4260 fluorescence intensity (a.u.); under “GCGCCGCCGGCACGGCGCCTCCTACGTGTTCGACGGAATGCGGAGTCACCTAGTGCAG”, 3310 fluorescence intensity (a.u.).
The result for “AAGTAGATGCAGGCGCCACCACGACTTTGATCGAGTTCTACGGAGTCACCTAGTGCAG” reads 4090 fluorescence intensity (a.u.); that for “TGACAACGGGGAGGGGAGGATGGGGCGGCGACGACAGGGGCGGAGTCACCTAGTGCAG”, 3580 fluorescence intensity (a.u.); that for “GGACGCTTACGCCGTGCCCGCTCTCGTGTCACTGCCTCATCGGAGTCACCTAGTGCAG”, 6040 fluorescence intensity (a.u.).
“CTCAGTATATATGTTTTGAATTCATTATGACATCTTTACACGGAGTCACCTAGTGCAG”: the binding signal was 3360 fluorescence intensity (a.u.).
The result for “CTTGCCTCCGCCCATAAATACCACCCGCATTGGCGTTCAGCGGAGTCACCTAGTGCAG” reads 50900 fluorescence intensity (a.u.).
The result for “AACTTGCGTTGACCACCCACGGGAACCATTCGTCAGATCCCGGAGTCACCTAGTGCAG” reads 3880 fluorescence intensity (a.u.); that for “CTCGGCACGGTGGGCCGGCCCGGTACGGCCCAATCAAATACGGAGTCACCTAGTGCAG”, 10900 fluorescence intensity (a.u.).
Turning to “CCTGTCACCTGTGTGCACTGTGATTCCCGTGATCATGTCCCGGAGTCACCTAGTGCAG”, the binding signal was 24700 fluorescence intensity (a.u.).
Under “CACACATATATATGCCACATCTTCTCTCTCTCTCTCTCCTCGGAGTCACCTAGTGCAG” stands 3660 fluorescence intensity (a.u.); under “CCTCTCCAGTACGCGTCGCCCCGCCACGTCAGCGACTGGCCGGAGTCACCTAGTGCAG”, 41600 fluorescence intensity (a.u.).
The result for “GATTACCCTGTTGCATTGTTATACTAATTATACGGTCACACGGAGTCACCTAGTGCAG” reads 3200 fluorescence intensity (a.u.); that for “CGCAACATCACCCTCGCCTTCTCTCTTTCTTCCGGCTTCCCGGAGTCACCTAGTGCAG”, 3740 fluorescence intensity (a.u.); that for “TAGAGTTTGCAATTGATATATGATGTGACATACTTATTTTCGGAGTCACCTAGTGCAG”, 3350 fluorescence intensity (a.u.).
The result for “TCCACCCCAGCCGTCGACGCCGCCGTCACCCACCCGCAACCGGAGTCACCTAGTGCAG” reads 3410 fluorescence intensity (a.u.).
“CGCGCTTGACCCGTCGCGCGCCACGCCACGCCACGCCAGCCGGAGTCACCTAGTGCAG”: the binding signal is 11200 fluorescence intensity (a.u.).
Under “AGACCCAAAATTCGTCATCACACACACAGACAGAAACAGACGGAGTCACCTAGTGCAG” stands 3280 fluorescence intensity (a.u.); under “AACAGACAACGACTATGACAACGTCAACCTCAAGCGGCCACGGAGTCACCTAGTGCAG”, 3250 fluorescence intensity (a.u.).
Under “GCCTCCTAACCACGTCGGTTTCATTGCCCTGTCGCTGACCCGGAGTCACCTAGTGCAG” stands 4880 fluorescence intensity (a.u.); under “TTAACCCCGTCACGTCACCTCTCTCTCTCTCTACCGTCTCCGGAGTCACCTAGTGCAG”, 9720 fluorescence intensity (a.u.); under “CTCATGTGAATGATTTGTCTGCATTGCTAGGTTGTGTCAGCGGAGTCACCTAGTGCAG”, 3430 fluorescence intensity (a.u.).
The result for “CCAACTTCTCGCCACCCCGTCACGACGAAGACGTTTGCTCCGGAGTCACCTAGTGCAG” reads 3660 fluorescence intensity (a.u.).
As for “ATTTGCTTACGGTTATCAACACCACTGCAGGCATCCATTGCGGAGTCACCTAGTGCAG”, the binding signal is 3680 fluorescence intensity (a.u.).
As to “GAAGAGGATCGGTTGCATGGGTTGGATCAGGGCCGGAGTTCGGAGTCACCTAGTGCAG”, the binding signal was 3270 fluorescence intensity (a.u.).
The result for “CAACCGCGTCACGAGGAATTCCTCCACTCCGTTCAGTGATCGGAGTCACCTAGTGCAG” reads 4650 fluorescence intensity (a.u.).
The result for “TGGCTGATTGTAGATTAAATTGGGTTGACACCTTTGCTATCGGAGTCACCTAGTGCAG” reads 3720 fluorescence intensity (a.u.); that for “GCCTTGATTATCACCTCCTGTACAAGTGTTAGATACTTCTCGGAGTCACCTAGTGCAG”, 24200 fluorescence intensity (a.u.).
As to “CAATGTCCAAACGCCTTTGTCTAAGAGAACTGGGCCAGAACGGAGTCACCTAGTGCAG”, the binding signal is 3610 fluorescence intensity (a.u.).
Under “GACCTCCGGGTGACACAGAAGGTTAGGATAGCTCAAGACGCGGAGTCACCTAGTGCAG” stands 3280 fluorescence intensity (a.u.).
Take “GCTTCAAGACGAGAGGTGGTGAGTCACGCGTAGCAACCGGCGGAGTCACCTAGTGCAG”: the binding signal is 7630 fluorescence intensity (a.u.).
Under “TTAGTCGAAAAGTCAATGGCGTCATACATTAAAATACGGACGGAGTCACCTAGTGCAG” stands 4650 fluorescence intensity (a.u.).
Under “TGTAGATGTCACGTCAGCGAAACCGTCCTCTGGAGGGTTGCGGAGTCACCTAGTGCAG” stands 5850 fluorescence intensity (a.u.); under “ATTGTATAAGTTAAATTTTAACTTACATGGTTGTGGAATGCGGAGTCACCTAGTGCAG”, 3590 fluorescence intensity (a.u.).
The result for “AATATGCTATCAATGTTATGGGCAAGGTTTATGTGCATTTCGGAGTCACCTAGTGCAG” reads 3690 fluorescence intensity (a.u.).
On to “ACATATATGCGTAAACAATTCATTGGTGGCCCAAGACATACGGAGTCACCTAGTGCAG”, for which the binding signal is 3520 fluorescence intensity (a.u.).
Under “AAGGCCCACGACCACAAGCTTAGCAAGCCCTCTCTCGGTCCGGAGTCACCTAGTGCAG” stands 34800 fluorescence intensity (a.u.); under “AATCTTTGACCCGCTGTCAGTTCATCATCCGTCTACTCTACGGAGTCACCTAGTGCAG”, 25600 fluorescence intensity (a.u.).
Under “ACATTTCTGATTTAGCTACATGTCATAGAGAGATTCAGTTCGGAGTCACCTAGTGCAG” stands 3980 fluorescence intensity (a.u.); under “GGACATACCTTTGTCCAGATTTACTGTATTAAAATGTGTCCGGAGTCACCTAGTGCAG”, 10100 fluorescence intensity (a.u.); under “CGCTCCACAGGCTCGCGTGCCGCGGGATCACTCGATTCGACGGAGTCACCTAGTGCAG”, 37500 fluorescence intensity (a.u.).
For the sequence “TTGTTCAGTTGTGTCACCCCGGTCTCTAAACTTGGATTTGCGGAGTCACCTAGTGCAG”, the binding signal is 4380 fluorescence intensity (a.u.).
Under “TGGTGGTCTTCTTTATCTTTACACATTGCCTTTGGCTAACCGGAGTCACCTAGTGCAG” stands 3160 fluorescence intensity (a.u.).
